{"sequences": {"note": "By UniProt entry, the sequences of proteins in these tests, tags left out.", "UniProt P17677": "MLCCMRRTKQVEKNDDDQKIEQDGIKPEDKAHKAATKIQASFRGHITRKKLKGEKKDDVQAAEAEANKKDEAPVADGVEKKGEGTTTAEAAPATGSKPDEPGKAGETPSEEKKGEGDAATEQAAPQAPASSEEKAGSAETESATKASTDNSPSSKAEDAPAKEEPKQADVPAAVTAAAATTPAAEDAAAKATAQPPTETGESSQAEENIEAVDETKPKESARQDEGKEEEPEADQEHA", "UniProt Q14258": "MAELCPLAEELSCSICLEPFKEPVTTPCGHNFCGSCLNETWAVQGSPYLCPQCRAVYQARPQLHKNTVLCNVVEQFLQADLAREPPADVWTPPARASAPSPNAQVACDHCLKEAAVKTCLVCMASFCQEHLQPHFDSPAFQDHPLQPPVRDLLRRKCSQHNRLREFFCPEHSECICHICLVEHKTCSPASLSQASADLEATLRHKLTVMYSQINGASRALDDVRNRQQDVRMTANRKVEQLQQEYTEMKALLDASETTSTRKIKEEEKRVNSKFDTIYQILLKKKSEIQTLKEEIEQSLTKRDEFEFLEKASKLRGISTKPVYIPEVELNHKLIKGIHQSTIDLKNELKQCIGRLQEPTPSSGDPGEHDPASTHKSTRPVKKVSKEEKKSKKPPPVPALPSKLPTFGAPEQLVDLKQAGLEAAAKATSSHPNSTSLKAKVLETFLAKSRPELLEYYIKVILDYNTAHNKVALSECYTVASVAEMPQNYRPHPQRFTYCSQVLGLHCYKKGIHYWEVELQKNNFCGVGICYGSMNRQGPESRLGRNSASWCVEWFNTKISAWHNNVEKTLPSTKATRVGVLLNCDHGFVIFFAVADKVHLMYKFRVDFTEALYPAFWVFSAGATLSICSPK"}, "source": "paper PMC10675959", "key": {"[1]": {"molecular_target": "growth-associated protein 43 (human (endogenous in umbilical cord MSCs)) (UniProt P17677)", "assay": "co-IP; Hyp-MSCs lysed in Co-IP buffer, GAP43 antibody at 4 °C overnight, magnetic beads 4 h, western blot for TRIM25; cells transfected with HIF-1α siRNA or control"}, "[2]": {"molecular_target": "growth-associated protein 43 (human (endogenous in umbilical cord MSCs)) (UniProt P17677)", "assay": "condition: only in Hyp-MSCs with HIF-1α overexpression; co-IP; Hyp-MSCs transfected with HIF-1α overexpressing plasmid; lysed in Co-IP buffer, GAP43 antibody at 4 °C overnight, magnetic beads 4 h, western blot for TRIM25"}}, "note": "No constants are given. Whether binding was seen depends on the method and setting. In cells and extracts the contact can be indirect. Some results given as binding are weak or reduced against the parent protein; the word gives no strength.", "data": [{"substance": "tripartite motif-containing protein 25 (from UniProt Q14258 1-630) (enzyme)", "values": [{"measurement": "binding", "setting": "[1]", "value": "binds"}, {"measurement": "binding", "setting": "[2]", "value": "no binding"}]}]}
